Part of at least one peptide drawing is inferred or uncertain, most often the ends. Where no end group is shown, it is not given here.
What was measured:
naive animals = conditions: cited from earlier work
naive mice = test: Tail-flick analgesia, morphine s.c. with or without dynorphin-(1-13) i.c.v., naive group (Example III); type: in vivo; conditions: for Inhibiting morphine induced analgesia: similar experiments
Protocol: (§1) Male simonesen ICR mice (Gilroy, CA) weighing between 20-25 g were housed for at least one day prior to experimentation, and used within 5 days. Each mouse was used only once.
(§2) Analgesia was measured by the tail-flick method of D'Amour and Smith, J.Pharmac.Exp.Ther., 72, pp. 74-79 (1941), incorporated herein by reference, as modified by Tulunay and Takemori, J.Pharmac.Exp.Ther., 190, pp. 395-400 (1974), incorporated herein by reference. […] Nonresponding animals were removed from the heat stimulus when reaction times exceeded 10 sec. to avoid the tail damage.
(§3) Drugs were injected 30 min prior to testing, unless otherwise indicated.
(§4) The animals were separated into two groups.
(§5) The ED50 values, their 95% confidence limits and significance of the potency ratio between two ED50 values were determined by the method of Litchfield and Wilcoxon, J.Pharmacol.Exp.Ther, 96:99-113 (1949), incorporated herein by reference.

morphine dependent mice = test: Spontaneous withdrawal jumping after removal of morphine pellets (Example IV); type: in vivo; conditions: for % spontaneously jumping after 30 min. / % spontaneously jumping after 60 min.: morphine dependent mice; for % spontaneously jumping after 30 min.: saline 90%; for % spontaneously jumping after 60 min.: saline 100%
mice = conditions: studies with mice; cited from earlier work
morphine tolerant mice [1] = test: Tail-flick analgesia, β-endorphin i.c.v. with or without dynorphin-(1-13) i.c.v., morphine tolerant group (Example II); type: in vivo
Protocol: as §1, §2, §3, §4, §5

guinea pig ileum = conditions: synthetic product, bioassays not further specified; cited from earlier work
morphine tolerant mice [2] = test: Tail-flick analgesia, morphine s.c. with or without dynorphin-(1-13) i.c.v., morphine tolerant group (Example I); type: in vivo; conditions: 10 and 20 μg i.c.v.
Protocol: as §1, §2, §3, §4, §5

## YGGFLRRIR [dynorphin-(1-9), reference compound]
Naive animals
  Effects on opiate and β-endorphin-induced analgesia: not
Naive mice; up to 40 μg
  Inhibiting morphine induced analgesia: inactive

## RRIRPKLK [-(6-13), reference compound]
Naive mice; up to 80 μg
  Inhibiting morphine induced analgesia: inactive

## CC[C@H](C)[C@H](NC(=O)[C@H](CCCNC(=N)N)NC(=O)[C@H](CCCNC(=N)N)NC(=O)[C@H](CC(C)C)NC(=O)[C@H](Cc1ccccc1)NC(=O)CNC(=O)CNC(=O)[C@@H](N)Cc1ccc(O)cc1)C(=O)N[C@@H](CCCNC(=N)N)C(=O)N1CCC[C@H]1C(=O)N[C@@H](CCCCN)C(=O)N[C@@H](CC(C)C)C(=O)N[C@@H](CCCCN)C(=O)O [dynorphin-(1-13)]
Morphine dependent mice; 10 μg dynorphin-(1-13) i.c.v.
  % spontaneously jumping after 30 min.: 90%
  % spontaneously jumping after 60 min.: 100%
Morphine dependent mice; 20 μg dynorphin-(1-13) i.c.v.
  % spontaneously jumping after 30 min.: 60%
  % spontaneously jumping after 60 min.: 90%
Morphine dependent mice; 50 μg dynorphin-(1-13) i.c.v.
  % spontaneously jumping after 30 min.: 20%
  % spontaneously jumping after 60 min.: 70%
Morphine dependent mice; morphine addicted hosts
  Effect on withdrawal symptoms of morphine addicted hosts: block the withdrawal symptoms
mice
  Producing analgesia: relatively weak
Naive animals
  Effect on analgesia produced by morphine: significantly attenuate, or inhibit
  Effects on opiate and β-endorphin-induced analgesia: significant effects
Morphine tolerant mice [1]; 10 and 20 μg i.c.v.
  Effect on β-endorphin induced analgesia: potentiated the β-endorphin effect
Morphine tolerant mice [1]; β-endorphin 0.5 μg/mouse + dynorphin 10 μg i.c.v.
  Analgesia (%): 10%
Morphine tolerant mice [1]; β-endorphin 1 μg/mouse + dynorphin 20 μg i.c.v.
  Analgesia (%): 80%
Guinea pig ileum
  Potency in bioassays compared with the naturally occurring peptide: as potent in bioassays as the naturally occurring peptide
Naive mice; dose related, curve shifted to the right
  Effect on morphine induced analgesia: significantly inhibited the morphine induced analgesia
Naive mice; morphine 3.75 mg/kg s.c. + dynorphin 10 μg i.c.v.
  Analgesia (%): 10%
Naive mice; morphine 7.5 mg/kg s.c. + dynorphin 20 μg i.c.v.
  Analgesia (%): 10%
Naive mice; morphine 10 mg/kg s.c. + dynorphin 20 μg i.c.v.
  Analgesia (%): 30%
Naive mice; morphine 15 mg/kg s.c. + dynorphin 10 μg i.c.v.
  Analgesia (%): 100%
Naive mice; morphine 40 mg/kg s.c. + dynorphin 20 μg i.c.v.
  Analgesia (%): 100%
Morphine tolerant mice [2]
  Effect on morphine induced analgesia: potentiated the morphine effect
